Values of other authors as cited in US20120238566A1, “USE OF CELL AUTOPHAGY (TYPE II CELL APOPTOSIS) INHIBITORS” (priority 2009, published 2012).

Assays:
JNK/SAPK = conditions: no prominent inhibitory effect; cited from earlier work
[1] = system: p44/42 MAPK (i.e. Erk1/2); conditions: no prominent inhibitory effect; cited from earlier work

For C[S+]([O-])c1ccc(-c2nc(-c3ccncc3)c(-c3ccc(F)cc3)[nH]2)cc1 (centres unmarked) [SB203580], the IC50 (JNK/SAPK) is listed as 100 µM and the IC50 [1] is listed as 100 µM.
